Measured values as given in PMC12673148, “Structural basis of protease-activated receptor 2 activation and biased agonism” (Cell Discovery, 2025).
These are yes or no findings as the source states them, for the method shown. For part of these data: Binding seen in cells or lysates may run through a third protein. Some results given as binding are weak or reduced against the parent protein; the word gives no strength.

Sequences of proteins named here, by UniProt entry; tags and fusion partners are left off. A change or cut given only in a name is not applied to a line headed by its entry. A line that says so, or that is headed by a name, gives the form on record, which may keep a tag or linker. Residues count along the entry.
UniProt P55085: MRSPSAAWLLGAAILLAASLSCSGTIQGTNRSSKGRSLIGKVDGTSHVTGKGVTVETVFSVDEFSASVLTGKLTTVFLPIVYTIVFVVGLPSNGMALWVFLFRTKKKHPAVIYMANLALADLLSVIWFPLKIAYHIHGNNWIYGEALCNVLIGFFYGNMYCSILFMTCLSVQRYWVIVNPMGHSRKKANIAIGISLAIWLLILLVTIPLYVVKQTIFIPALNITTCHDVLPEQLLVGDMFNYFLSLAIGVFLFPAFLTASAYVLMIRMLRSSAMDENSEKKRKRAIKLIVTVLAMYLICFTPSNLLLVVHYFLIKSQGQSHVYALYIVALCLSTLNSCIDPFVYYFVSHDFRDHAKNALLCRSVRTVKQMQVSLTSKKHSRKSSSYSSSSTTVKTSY
PAR2 (residues 37–377) with LgBiT fused to the C-terminus: residues 37-377 of P55085
WT PAR2 (Δ1–48) fused with cpVenus to its C-terminus: residues 49-397 of P55085
UniProt P50148: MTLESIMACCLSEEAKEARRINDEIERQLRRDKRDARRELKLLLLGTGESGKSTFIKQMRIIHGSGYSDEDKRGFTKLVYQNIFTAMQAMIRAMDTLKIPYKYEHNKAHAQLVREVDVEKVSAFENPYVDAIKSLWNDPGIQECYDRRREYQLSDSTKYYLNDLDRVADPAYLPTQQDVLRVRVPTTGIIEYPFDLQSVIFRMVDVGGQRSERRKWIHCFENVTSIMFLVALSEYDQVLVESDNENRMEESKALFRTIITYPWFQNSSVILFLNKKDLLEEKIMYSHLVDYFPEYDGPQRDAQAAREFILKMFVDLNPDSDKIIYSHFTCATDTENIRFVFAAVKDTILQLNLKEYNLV
UniProt Q14344: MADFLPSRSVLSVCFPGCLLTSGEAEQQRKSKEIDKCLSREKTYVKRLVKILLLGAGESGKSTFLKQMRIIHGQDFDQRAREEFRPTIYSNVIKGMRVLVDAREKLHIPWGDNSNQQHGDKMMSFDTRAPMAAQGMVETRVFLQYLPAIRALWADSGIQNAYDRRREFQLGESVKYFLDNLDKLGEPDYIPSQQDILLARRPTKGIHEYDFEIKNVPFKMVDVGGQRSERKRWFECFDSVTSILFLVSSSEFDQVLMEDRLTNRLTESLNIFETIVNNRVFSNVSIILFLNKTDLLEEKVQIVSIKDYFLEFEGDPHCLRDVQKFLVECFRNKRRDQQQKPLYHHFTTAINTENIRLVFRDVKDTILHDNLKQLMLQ

Key:
[1] = biological target: WT PAR2 (Δ1–48) fused with cpVenus to its C-terminus (human) (UniProt P55085); assay: FRET or BRET; BRET0 Gα recruitment assay in AD293 cells transfected with PAR2 (Δ1–48)-cpVenus, Gα-Nluc, Gβ and Gγ; signal after addition of the TL ligand; ratio 535 nm/450 nm
[2] = biological target: PAR2 (residues 37–377) with LgBiT fused to the C-terminus (human) (UniProt P55085); assay: cryo-EM structure; single-particle cryo-EM of PAR2/G protein complexes coexpressed in Sf9 with NanoBiT tethering (PAR2-LgBiT, Gβ1-HiBiT), solubilised in LMNG/CHS; 20 mM HEPES pH 7.5, 150 mM NaCl, LMNG/GDN/CHS; Nb35 added to the Gq complex, scFv16 coexpressed for the G13 complex; both purified

Row | binding [1] | binding [2] | Molecule
1 | binds | – | Gαq-Nluc (from UniProt P50148 1-359)
2 | binds | – | Gα13-Nluc (from UniProt Q14344 1-377)
3 | – | binds | SLIGKV [tethered ligand (TL) of PAR2, residues 37–42]
